The exact form of at least one protein or probe is not confirmed. At least one verdict rests on a figure or table, not on a statement of the authors. Tags and fusion partners may be left off the protein sequences shown.
Biological target: T1, LSm domain of Ataxin-2 (UniProt Q99700)
T1 sequence (looked up): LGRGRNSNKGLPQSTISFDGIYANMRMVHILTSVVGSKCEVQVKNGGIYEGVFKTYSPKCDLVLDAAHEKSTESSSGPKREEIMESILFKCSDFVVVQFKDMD
Experiment: EMSA
Conditions: 0.8 uM RNA, LSm/RNA ratio 0-20, 1 mM MgCl2; EMSA: 10 mM Tris pH 8.0, 25 mM KCl, 10 mM NaCl, 1 mM MgCl2, 10% glycerol, 0.5 mM DTT, 20 min, 25 C; recombinant protein; residues 242-344; letters put together from the description

## GGCCUUCGGGCCAAAUUUUUAUUUUUAUUUUUAUUUUUAUUUUUUCGAUCCGGUUCGCCGGAUCCAAAUCGGGCUUCGGUCCGGUUC [AU-rich RNA]
  binding result: binds
